Among all 340,000 compounds or so, about 170 (0.05%) were called active. Inconclusive results, whose numbers are uncertain, are shown with a selection of clear calls. Calls come from the whole dose curve; as a rule, active = well fitted inhibition curve with a large enough effect in the signal ratio, with a control signal flat (not every such curve was filed as active); inconclusive = small, poorly fitted or top-dose-only effect, or effect the other way, or a change in a side signal; inactive = flat fitted curve, though single readings scatter; the % refers to the signal ratio. Where the call is inconclusive, the potency comes from a doubtful curve fit.
Assay: qHTS Assay to Find Inhibitors of Chronic Active B-Cell Receptor Signaling;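 for activity change, negative = inhibition: plate controls were basal doxycycline-induced cells for no effect and cells given 10 µM MG132 for full effect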
Details: ABC-DLBCL IkBa-CBG/CBR reporter, luminescence ratio (green luciferase fused to IkBa over red control in TMD8 lymphoma cells), 4 h; activity change, negative = inhibition: at 46.1 µM (top of the series)
Method in brief: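 Cell line TMD8 (human ABC DLBCL), stably expressing tet-inducible CBG68-IkBa fusion and CBR; IMDM/0.5% FBS; cpd up to 46 uM; dox induction, 4 h, 37C/5% CO2; dual luminescence; green/red ratio; MG132 control.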
Potency is the fitted concentration of half-maximal effect.

Compound | activity change, negative = inhibition | Potency
Cn1c(=O)n(Cc2ccccc2)c(=O)c2c1nc1n2CCCN1Cc1ccccc1 | inconclusive: 1.54% | –
O=C(Nc1ccc(F)cc1)c1nn(-c2ccccc2)c(=O)cc1Cl | inconclusive: 3.93% | –
O=C1N(c2ccc(Cl)c(Cl)c2)CN(Cc2ccccc2)CN1n1cnnc1 | inactive | –
O=Cc1ccnc(-c2ccc(OC(=O)c3ccco3)cc2)n1 | – | inconclusive: 17.8 µM [falling, single point]
Cc1ccc(NC(=O)CCNCc2ccco2)cc1S(=O)(=O)N(C)C | inactive | –
CCc1ccc(NC(=O)CSc2nc(N)c(NC(=O)c3ccc(F)c(F)c3)c(=O)[nH]2)cc1 | inconclusive: -31.2% | –
CN(CC(=O)Nc1ccc(F)c(F)c1F)C1CCCCC1 | – | inconclusive: 23.1 µM [falling, single point]
Cc1ccc(-c2noc(CCC(=O)NCCN3CCN(Cc4ccccc4)CC3)n2)cc1 | inactive | –
O=c1[nH]c(-c2ccccc2)nc2sc(-c3ccccc3)cc12 | inconclusive: -8.11% | –
Brc1cc2ccccc2[n+](Cc2ccccc2)c1 | inactive | –
CCOc1ccc(CN(C)C(=O)[C@H](C)NC(=O)c2ccco2)cc1OC | inconclusive: 5.82% | –
O=c1[nH]c2ccccc2nc1CCc1ccccc1 | inconclusive: -11.4% | –
Cn1cccc1/C=C1\SC(=Nc2ccccc2)NC1=O | inconclusive: 181% | –
Cc1ccc(N(C(=O)CNC(=O)c2ccco2)C(C(=O)NC2CCCCC2)c2cccnc2)cc1 (configuration not stated) | – | inconclusive: 11.2 µM [falling, partial curve, poor fit]
O=c1cc(O)c(-c2cccc(Cl)c2)c(Cl)[nH]1 | – | inconclusive: 13 µM [rising, partial curve, poor fit]
CN1CCN(Cc2cc(=O)oc3ccc(Cl)cc23)CC1 | inconclusive: 5.48% | –
CCOc1cc(C2C(C#N)=C(N)OC3=C2C(=O)CC(C)(C)C3)cc([N+](=O)[O-])c1O (configuration not stated) | inconclusive: 8.98% | –
Cc1ccc(NC(=O)Cn2c(CCC(=O)O)ccc2-c2ccc(Cl)cc2)cc1 | inconclusive: 4.64% | –
Cc1ccsc1/C=C1\CCC(C2CCCC2)C1=O (configuration not stated) | inconclusive: 11.9% | –
O=C(CCN1C(=O)/C(=C/c2ccc(Cl)cc2)SC1=S)Nc1cccnc1 | – | inconclusive: 22.4 µM [falling, partial curve]
Cc1ccc(N=Cc2cc(Cc3ccccc3Cl)cc([N+](=O)[O-])c2O)c(O)c1 | inconclusive: -8.05% | –
COc1cccc(/C=C/C(=O)c2ccc(NC3=NCCCS3)cc2)c1 | – | inconclusive: 28.2 µM [falling, single point]

Fetched one by one from the list above, 2 records:
Compound | activity change, negative = inhibition | Potency
Cc1ccsc1/C=C1\CCC(C2CCCC2)C1=O (configuration not stated) | inconclusive: 11.9% | –
Cc1ccc(N(C(=O)CNC(=O)c2ccco2)C(C(=O)NC2CCCCC2)c2cccnc2)cc1 (configuration not stated) | – | inconclusive: 11.2 µM [falling, partial curve, poor fit]

Source: PubChem BioAssay AID493014 (National Center for Advancing Translational Sciences (NCATS), 2011)
